No constants are given. Whether binding was seen depends on the method and setting. Binding seen in cells or lysates may run through a third protein. A result given as binding can be weak or reduced; the word gives no strength. Sequences can lack the tags named with a protein.
Tests used:
[1] = target: T1, Cdc27p-9myc (S. cerevisiae) (UniProt P38042); assay: co-IP; Cdc27-9myc strain KCY328 with Ama1p-T7 plasmids, cells harvested 12 h after transfer to sporulation medium (meiosis); 1 mg soluble protein; immunoprecipitation and immunoblot; which protein was precipitated is not told
T1 sequence: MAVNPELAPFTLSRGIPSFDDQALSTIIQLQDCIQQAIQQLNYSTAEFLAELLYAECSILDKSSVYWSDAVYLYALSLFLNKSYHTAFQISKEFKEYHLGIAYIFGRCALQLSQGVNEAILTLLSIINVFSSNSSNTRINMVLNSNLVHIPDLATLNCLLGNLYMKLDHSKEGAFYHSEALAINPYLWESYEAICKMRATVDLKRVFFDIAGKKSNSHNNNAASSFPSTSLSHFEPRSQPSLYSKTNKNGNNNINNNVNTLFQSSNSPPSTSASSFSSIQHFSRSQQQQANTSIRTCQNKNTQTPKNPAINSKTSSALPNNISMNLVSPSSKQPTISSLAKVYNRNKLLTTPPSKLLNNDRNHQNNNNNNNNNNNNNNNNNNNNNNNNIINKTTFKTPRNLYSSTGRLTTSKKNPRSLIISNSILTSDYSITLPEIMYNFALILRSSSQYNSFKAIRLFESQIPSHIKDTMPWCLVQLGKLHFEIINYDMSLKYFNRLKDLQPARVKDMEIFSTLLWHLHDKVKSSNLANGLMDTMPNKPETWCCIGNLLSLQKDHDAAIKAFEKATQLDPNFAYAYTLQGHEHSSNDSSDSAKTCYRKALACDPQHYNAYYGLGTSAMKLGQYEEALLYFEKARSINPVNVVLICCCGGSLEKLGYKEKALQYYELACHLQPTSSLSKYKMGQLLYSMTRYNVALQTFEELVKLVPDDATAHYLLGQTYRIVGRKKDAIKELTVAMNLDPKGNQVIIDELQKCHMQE

Chains of the proteins cited; added tags and fusions are not shown. Lines headed by an entry give the natural chain unless they say otherwise; changes in a name come on top.
UniProt P50082: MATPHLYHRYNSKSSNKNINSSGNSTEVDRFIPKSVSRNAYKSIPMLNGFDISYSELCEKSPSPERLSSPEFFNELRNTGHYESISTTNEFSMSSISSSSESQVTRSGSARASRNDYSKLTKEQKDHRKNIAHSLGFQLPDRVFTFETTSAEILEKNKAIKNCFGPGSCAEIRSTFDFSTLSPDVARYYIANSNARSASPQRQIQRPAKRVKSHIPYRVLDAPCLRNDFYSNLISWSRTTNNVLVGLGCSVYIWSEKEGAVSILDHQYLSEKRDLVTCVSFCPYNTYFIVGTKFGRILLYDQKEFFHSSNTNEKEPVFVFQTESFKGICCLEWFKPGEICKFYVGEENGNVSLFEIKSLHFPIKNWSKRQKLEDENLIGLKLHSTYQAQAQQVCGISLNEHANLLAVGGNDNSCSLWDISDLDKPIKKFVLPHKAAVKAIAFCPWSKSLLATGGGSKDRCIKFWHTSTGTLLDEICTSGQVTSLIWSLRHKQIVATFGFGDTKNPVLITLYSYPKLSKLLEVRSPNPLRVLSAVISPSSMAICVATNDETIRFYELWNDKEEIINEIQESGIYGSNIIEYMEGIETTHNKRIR

[2] = target: T1, Cdc27p-9myc (S. cerevisiae); assay: co-IP; Cdc27-9myc strain RSY1337 with GST or GST-Ama1p fusion plasmids, grown in raffinose/galactose medium to induce the fusion genes; 1 mg soluble protein; immunoprecipitation and immunoblot, with a no-antibody mock immunoprecipitation

binding [1] | binding [2] | Substance
binds |  | Ama1p^CB∆-T7 (from UniProt P50082)
binds weakly |  | Ama1p^CB∆/IR∆-T7 (from UniProt P50082)
binds |  | Ama1p^IR∆-T7 (from UniProt P50082)
 | binds | GST-Ama1p^1-200CB∆ (from UniProt P50082) (domain or fragment)

— publication PMC3734102
